Experimental data from publication PMC8301221.
These are yes or no findings as the source states them, for the method shown. In cells and extracts the contact can be indirect. Some binding calls cover weakened binding; strength is not graded here.

Target: signal transducer and activator of transcription 2 (STAT2) (human (endogenous in HEK293T)), P52630
Experiment: co-IP; HEK293T cells transfected with empty vector or Flag-UL23 plasmid for 46 h; RIPA lysates immunoprecipitated separately with anti-IRF9, anti-STAT1 and anti-STAT2 antibodies and protein A/G; immunoblot
Conditions: remark: other sources report otherwise

B1: IFN regulatory factor 9 (IRF9), Q00978 1-393 (protein)
chain: MASGRARCTRKLRNWVVEQVESGQFPGVCWDDTAKTMFRIPWKHAGKQDFREDQDAAFFKAWAIFKGKYKEGDTGGPAVWKTRLRCALNKSSEFKEVPERGRMDVAEPYKVYQLLPPGIVSGQPGTQKVPSKRQHSSVSSERKEEEDAMQNCTLSPSVLQDSLNNEEEGASGGAVHSDIGSSSSSSSPEPQEVTDTTEAPFQGDQRSLEFLLPPEPDYSLLLTFIYNGRVVGEAQVQSLDCRLVAEPSGSESSMEQVLFPKPGPLEPTQRLLSQLERGILVASNPRGLFVQRLCPIPISWNAPQAPPGPGPHLLPSNECVELFRTAYFCRDLVRYFQGLGPPPKFQVTLNFWEESHGSSHTPQNLITVKMEQAFARYLLEQTPEQQAAILSLV
binding: binds
